From PMC4881399 come the findings set out here.

Chains of the proteins cited; added tags and fusions are not shown. Lines headed by an entry give the natural chain unless they say otherwise; changes in a name come on top.
UniProt Q8ILY9: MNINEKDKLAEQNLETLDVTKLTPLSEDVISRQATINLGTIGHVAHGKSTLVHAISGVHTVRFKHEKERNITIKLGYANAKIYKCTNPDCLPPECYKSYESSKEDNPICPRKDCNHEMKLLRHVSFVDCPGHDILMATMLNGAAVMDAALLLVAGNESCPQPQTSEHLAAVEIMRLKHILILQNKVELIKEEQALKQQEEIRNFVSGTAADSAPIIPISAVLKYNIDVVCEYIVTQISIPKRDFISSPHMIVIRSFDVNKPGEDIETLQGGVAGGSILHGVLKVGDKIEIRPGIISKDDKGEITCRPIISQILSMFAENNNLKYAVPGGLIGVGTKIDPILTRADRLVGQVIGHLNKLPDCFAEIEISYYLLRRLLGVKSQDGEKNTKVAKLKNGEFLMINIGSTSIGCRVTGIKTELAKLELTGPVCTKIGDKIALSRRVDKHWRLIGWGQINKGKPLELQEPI
UniProt Q8IJT9: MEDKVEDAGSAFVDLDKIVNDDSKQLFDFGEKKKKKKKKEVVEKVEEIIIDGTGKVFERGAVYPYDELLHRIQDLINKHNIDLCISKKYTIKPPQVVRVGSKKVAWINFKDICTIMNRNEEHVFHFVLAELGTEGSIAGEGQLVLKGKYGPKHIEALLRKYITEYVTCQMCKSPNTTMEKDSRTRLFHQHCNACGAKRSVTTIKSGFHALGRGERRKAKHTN

This experiment concerns the target His-tagged PfeIF2γ recombinant protein (Plasmodium falciparum) (UniProt Q8ILY9). Kind of experiment: co-IP; Xenopus oocytes micro-injected with cRNA of the HA-tagged protein and then with the His-tagged recombinant protein; immunoprecipitation with anti-His or anti-HA, immunoblots with anti-His or anti-HA; only the target purified. Background: A western blot detects proteins with antibodies after separation by electrophoresis.

No constants are given. Whether binding was seen depends on the method and setting. Binding seen in cells or lysates may run through a third protein. A result given as binding can be weak or reduced; the word gives no strength.

For “HA-PfeIF2β expressed in Xenopus oocytes from micro-injected cRNA (from UniProt Q8IJT9)”, the binding entry is reported as “binds”.
